{
  "sequences": {"note": "Sequences of proteins named here, by UniProt entry; tags and fusion partners are left off. A change or cut given only in a name is not applied to a line headed by its entry.", "UniProt P17014": "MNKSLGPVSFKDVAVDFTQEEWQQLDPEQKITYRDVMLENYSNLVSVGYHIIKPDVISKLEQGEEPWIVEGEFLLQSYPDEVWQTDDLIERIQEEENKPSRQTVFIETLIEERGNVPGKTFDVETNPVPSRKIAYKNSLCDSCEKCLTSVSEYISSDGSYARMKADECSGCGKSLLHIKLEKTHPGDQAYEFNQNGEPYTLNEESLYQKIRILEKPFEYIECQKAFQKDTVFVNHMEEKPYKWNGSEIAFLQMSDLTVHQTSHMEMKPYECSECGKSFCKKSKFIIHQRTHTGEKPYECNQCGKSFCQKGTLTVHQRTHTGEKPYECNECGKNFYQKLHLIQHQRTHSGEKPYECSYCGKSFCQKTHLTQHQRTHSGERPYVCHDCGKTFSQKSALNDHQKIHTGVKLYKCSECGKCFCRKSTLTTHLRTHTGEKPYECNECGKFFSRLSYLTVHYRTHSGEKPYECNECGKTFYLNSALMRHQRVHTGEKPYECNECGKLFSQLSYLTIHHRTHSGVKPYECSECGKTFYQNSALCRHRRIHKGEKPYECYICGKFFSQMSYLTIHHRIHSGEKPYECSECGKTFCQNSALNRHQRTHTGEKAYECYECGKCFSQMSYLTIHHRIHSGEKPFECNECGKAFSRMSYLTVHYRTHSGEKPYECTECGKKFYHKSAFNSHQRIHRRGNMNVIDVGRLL", "UniProt P17535": "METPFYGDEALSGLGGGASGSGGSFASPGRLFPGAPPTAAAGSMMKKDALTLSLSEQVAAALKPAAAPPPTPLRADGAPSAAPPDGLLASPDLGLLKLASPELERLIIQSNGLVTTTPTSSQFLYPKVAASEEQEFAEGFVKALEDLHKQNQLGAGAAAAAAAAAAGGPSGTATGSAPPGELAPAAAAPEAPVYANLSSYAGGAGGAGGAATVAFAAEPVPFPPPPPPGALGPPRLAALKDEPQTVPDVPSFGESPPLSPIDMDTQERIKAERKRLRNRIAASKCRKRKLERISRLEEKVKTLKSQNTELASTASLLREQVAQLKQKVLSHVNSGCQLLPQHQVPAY", "UniProt P27707": "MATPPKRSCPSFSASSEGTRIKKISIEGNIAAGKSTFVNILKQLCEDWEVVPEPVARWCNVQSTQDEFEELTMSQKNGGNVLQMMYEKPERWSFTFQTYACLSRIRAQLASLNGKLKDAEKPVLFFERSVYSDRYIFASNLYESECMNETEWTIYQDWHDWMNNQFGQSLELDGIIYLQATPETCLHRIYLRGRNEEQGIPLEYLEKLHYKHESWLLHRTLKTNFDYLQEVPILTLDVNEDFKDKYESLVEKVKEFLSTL", "UniProt P15428": "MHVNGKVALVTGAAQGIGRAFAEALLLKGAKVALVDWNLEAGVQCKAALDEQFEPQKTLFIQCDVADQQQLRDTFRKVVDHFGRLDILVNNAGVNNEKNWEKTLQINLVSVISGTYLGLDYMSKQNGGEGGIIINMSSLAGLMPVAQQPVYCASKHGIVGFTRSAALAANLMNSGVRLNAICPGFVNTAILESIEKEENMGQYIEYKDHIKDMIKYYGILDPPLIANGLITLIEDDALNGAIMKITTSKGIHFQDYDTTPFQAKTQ", "UniProt P16383": "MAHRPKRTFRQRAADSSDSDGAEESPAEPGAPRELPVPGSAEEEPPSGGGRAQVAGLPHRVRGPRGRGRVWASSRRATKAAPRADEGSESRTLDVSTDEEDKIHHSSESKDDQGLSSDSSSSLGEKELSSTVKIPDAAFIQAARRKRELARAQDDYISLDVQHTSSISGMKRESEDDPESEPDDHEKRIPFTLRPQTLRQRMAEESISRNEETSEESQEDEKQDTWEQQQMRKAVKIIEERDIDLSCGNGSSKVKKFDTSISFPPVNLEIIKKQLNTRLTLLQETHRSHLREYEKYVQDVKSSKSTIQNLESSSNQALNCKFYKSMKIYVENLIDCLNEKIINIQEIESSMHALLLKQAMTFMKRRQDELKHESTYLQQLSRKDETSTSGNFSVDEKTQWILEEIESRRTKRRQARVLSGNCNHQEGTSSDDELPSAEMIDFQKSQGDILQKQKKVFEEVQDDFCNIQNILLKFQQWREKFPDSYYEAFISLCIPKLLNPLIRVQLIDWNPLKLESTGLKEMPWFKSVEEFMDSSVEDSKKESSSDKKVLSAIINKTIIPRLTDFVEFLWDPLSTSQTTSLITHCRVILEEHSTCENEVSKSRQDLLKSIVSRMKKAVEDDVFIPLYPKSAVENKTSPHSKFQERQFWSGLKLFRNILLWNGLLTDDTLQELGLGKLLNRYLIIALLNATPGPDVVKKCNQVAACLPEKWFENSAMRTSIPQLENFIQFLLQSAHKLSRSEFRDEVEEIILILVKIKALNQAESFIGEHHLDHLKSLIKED", "UniProt P27824": "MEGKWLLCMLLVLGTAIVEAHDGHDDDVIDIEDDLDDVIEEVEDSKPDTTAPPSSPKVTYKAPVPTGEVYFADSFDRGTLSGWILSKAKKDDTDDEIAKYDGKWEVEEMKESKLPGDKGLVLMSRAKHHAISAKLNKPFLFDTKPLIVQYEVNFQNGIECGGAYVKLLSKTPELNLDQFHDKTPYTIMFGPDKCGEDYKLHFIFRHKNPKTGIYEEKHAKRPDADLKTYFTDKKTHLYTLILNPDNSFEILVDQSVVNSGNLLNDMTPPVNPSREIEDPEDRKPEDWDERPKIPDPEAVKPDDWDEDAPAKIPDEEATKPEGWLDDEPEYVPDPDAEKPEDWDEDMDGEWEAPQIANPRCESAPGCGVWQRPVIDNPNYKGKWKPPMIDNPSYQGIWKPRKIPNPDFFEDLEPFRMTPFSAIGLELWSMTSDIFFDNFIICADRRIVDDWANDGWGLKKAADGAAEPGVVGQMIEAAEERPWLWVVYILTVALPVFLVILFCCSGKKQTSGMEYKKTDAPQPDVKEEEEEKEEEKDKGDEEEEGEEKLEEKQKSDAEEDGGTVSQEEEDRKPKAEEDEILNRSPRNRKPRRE", "UniProt P16885": "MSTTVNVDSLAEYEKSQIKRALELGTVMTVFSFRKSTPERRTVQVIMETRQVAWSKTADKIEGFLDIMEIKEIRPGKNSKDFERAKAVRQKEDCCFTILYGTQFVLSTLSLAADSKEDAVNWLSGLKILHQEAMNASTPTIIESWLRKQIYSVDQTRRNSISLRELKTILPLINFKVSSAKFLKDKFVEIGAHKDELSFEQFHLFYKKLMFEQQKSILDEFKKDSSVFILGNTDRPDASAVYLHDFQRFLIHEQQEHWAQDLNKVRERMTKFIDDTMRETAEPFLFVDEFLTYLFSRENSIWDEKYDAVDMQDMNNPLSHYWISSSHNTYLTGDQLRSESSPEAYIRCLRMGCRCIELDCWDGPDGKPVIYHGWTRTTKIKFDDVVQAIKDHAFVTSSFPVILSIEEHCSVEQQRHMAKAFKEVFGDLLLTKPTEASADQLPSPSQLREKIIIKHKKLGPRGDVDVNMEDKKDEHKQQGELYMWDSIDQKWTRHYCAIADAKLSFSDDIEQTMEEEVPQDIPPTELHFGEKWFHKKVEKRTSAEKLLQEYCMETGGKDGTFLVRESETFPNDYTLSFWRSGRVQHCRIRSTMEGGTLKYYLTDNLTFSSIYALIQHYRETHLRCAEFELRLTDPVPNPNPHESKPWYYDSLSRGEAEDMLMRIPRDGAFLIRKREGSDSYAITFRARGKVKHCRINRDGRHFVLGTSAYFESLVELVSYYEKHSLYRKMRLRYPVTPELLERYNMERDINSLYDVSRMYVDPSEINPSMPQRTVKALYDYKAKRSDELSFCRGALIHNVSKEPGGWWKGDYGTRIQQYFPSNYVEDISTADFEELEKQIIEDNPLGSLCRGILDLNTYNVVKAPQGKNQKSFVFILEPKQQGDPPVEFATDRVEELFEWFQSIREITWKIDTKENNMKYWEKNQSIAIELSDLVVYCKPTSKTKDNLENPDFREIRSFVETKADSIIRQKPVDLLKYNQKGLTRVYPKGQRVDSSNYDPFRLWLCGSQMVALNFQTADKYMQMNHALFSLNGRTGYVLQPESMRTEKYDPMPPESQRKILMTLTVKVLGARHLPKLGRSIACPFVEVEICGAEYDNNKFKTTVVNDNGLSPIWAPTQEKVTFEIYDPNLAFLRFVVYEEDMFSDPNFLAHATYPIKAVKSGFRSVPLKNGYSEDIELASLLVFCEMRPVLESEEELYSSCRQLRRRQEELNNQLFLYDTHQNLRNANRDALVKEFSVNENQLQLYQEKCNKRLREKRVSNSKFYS", "UniProt P17752": "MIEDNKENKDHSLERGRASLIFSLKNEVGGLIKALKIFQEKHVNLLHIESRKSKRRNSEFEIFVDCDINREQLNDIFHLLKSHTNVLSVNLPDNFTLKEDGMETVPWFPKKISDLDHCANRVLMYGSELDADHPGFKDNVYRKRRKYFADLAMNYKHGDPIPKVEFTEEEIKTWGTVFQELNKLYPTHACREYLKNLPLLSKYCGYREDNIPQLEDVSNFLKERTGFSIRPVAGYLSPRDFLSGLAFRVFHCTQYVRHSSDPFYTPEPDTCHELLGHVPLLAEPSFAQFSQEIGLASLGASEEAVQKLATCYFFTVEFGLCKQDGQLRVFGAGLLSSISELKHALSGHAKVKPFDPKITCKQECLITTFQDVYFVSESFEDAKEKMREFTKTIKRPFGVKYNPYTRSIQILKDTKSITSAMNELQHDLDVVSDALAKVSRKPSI", "UniProt P16930": "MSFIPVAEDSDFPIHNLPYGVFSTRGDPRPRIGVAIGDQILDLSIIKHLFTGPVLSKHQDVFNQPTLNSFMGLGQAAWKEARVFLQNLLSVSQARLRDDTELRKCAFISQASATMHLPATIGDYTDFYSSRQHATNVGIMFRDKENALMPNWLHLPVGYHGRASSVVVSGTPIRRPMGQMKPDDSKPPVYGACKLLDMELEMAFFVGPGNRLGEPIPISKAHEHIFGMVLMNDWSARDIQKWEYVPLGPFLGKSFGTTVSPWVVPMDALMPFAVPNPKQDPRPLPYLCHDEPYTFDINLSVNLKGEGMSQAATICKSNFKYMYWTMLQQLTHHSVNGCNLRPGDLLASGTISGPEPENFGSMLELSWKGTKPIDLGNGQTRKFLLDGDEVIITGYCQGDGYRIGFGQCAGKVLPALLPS", "UniProt P23677, whole entry": "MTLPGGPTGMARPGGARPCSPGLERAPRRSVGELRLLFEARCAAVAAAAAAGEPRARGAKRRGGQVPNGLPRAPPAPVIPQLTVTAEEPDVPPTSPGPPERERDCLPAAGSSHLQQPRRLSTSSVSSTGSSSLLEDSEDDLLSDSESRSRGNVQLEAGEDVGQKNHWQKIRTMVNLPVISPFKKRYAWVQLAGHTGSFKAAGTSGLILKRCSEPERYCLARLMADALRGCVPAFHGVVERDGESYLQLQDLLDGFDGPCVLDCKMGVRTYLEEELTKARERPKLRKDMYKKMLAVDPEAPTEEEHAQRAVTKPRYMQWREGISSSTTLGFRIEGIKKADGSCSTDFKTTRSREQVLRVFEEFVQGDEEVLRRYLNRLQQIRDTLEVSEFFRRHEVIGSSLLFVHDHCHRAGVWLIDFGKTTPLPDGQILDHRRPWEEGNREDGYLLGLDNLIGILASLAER", "UniProt P25686": "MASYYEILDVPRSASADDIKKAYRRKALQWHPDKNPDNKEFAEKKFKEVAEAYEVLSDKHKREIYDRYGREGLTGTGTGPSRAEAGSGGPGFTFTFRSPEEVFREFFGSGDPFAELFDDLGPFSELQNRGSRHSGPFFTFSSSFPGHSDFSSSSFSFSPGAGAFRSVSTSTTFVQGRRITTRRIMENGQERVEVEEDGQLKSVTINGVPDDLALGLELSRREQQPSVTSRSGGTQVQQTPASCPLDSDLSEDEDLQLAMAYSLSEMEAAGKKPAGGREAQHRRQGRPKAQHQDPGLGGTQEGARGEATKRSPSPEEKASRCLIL", "UniProt P17097": "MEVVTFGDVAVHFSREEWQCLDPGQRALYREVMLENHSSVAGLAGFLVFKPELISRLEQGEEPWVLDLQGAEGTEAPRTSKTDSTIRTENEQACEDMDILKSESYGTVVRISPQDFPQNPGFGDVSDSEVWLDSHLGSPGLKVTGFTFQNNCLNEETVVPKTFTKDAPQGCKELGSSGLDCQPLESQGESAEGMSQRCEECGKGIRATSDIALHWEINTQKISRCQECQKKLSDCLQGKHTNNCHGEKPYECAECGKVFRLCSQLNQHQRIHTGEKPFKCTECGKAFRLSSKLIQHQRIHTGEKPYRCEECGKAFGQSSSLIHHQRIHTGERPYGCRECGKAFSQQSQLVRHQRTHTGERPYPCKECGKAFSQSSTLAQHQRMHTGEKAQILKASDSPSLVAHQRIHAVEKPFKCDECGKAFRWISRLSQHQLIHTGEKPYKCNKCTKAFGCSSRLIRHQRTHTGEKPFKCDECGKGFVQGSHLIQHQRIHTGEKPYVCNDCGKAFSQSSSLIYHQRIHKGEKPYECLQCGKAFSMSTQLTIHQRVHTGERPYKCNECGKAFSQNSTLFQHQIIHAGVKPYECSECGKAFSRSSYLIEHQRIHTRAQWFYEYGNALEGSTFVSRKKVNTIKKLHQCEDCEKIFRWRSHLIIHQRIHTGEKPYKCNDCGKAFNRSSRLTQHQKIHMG"},
  "source": "the supplement of paper PMC12819154",
  "about": "“High-throughput peptide-centric local stability assay extends protein–ligand identification to membrane proteins, tissues and bacteria” (Nature Structural & Molecular Biology, 2025)",
  "note": "The other results are listed elsewhere or left out. Most values lie at the level of the controls, where differences are scatter.",
  "data": [
    {"compound": "Cc1nc(Nc2ncc(C(=O)Nc3c(C)cccc3Cl)s2)cc(N2CCN(CCO)CC2)n1 [dasatinib]", "assay": "log2 fold change of tryptic peptide abundance, ligand vs vehicle (limited proteolysis) (log2 ratio); higher = more trypsin-susceptible (destabilized)", "conditions": "ligand concentration: 5 uM; sample: K562 cleared lysate", "values": [
      {"target": "ATF7 (peptide sequence: AADEDEKK, peptide start residue: 81) (UniProt P17544)", "log2 fold change": 0.0719},
      {"target": "PSMA4 (peptide sequence: LSAEKVEIATLTR, peptide start residue: 206) (UniProt P25789)", "log2 fold change": -0.141},
      {"target": "UniProt P28562 (peptide sequence: AAQVFFLK, peptide start residue: 115)", "log2 fold change": 0.503},
      {"target": "UniProt P17014 (peptide sequence: DTVFVNHMEEKPYK, peptide start residue: 229)", "log2 fold change": 0.329},
      {"target": "NQO2 (peptide sequence: SLASDITDEQKK, peptide start residue: 80) (UniProt P16083)", "log2 fold change": -0.425},
      {"target": "UniProt P26367 (peptide sequence: THYPDVFAR, peptide start residue: 232)", "log2 fold change": -0.142},
      {"target": "GM2A (peptide sequence: IESVLSSSGK, peptide start residue: 170) (UniProt P17900)", "log2 fold change": -0.249},
      {"target": "JUND (peptide sequence: LASPELER, peptide start residue: 71) (UniProt P17535)", "log2 fold change": 0.0686},
      {"target": "DCK (peptide sequence: LKDAEKPVLFFER, peptide start residue: 116) (UniProt P27707)", "log2 fold change": -0.0721},
      {"target": "UQCRB (peptide sequence: DDTIYEDEDVKEAIR, peptide start residue: 35) (UniProt P14927)", "log2 fold change": -0.0831},
      {"target": "HPGD (peptide sequence: VALVTGAAQGIGR, peptide start residue: 7) (UniProt P15428)", "log2 fold change": -0.17},
      {"target": "UniProt P16383 (peptide sequence: AQVAGLPHR, peptide start residue: 52)", "log2 fold change": -0.188},
      {"target": "COX6B1 (peptide sequence: FPNQNQTR, peptide start residue: 21) (UniProt P14854)", "log2 fold change": 0.15},
      {"target": "TMOD1 (peptide sequence: KFSIVGTR, peptide start residue: 228) (UniProt P28289)", "log2 fold change": 0.17},
      {"target": "ANXA7 (peptide sequence: DLLSSVSR, peptide start residue: 390) (UniProt P20073)", "log2 fold change": -0.109},
      {"target": "CANX (peptide sequence: IVDDWANDGWGLKK, peptide start residue: 446) (UniProt P27824)", "log2 fold change": -0.258},
      {"target": "ATF6 (peptide sequence: IQVNSKPSIQPKPLLLPAAPK, peptide start residue: 171) (UniProt P18850)", "log2 fold change": -0.389},
      {"target": "PLCG2 (peptide sequence: QKPVDLLK, peptide start residue: 969) (UniProt P16885)", "log2 fold change": -0.62},
      {"target": "UniProt P17752 (peptide sequence: EKMREFTK, peptide start residue: 384)", "log2 fold change": -0.241},
      {"target": "FAH (peptide sequence: LGEPIPISK, peptide start residue: 212) (UniProt P16930)", "log2 fold change": 0.294},
      {"target": "UniProt P20823 (peptide sequence: VYNWFANR, peptide start residue: 326)", "log2 fold change": 0.0837},
      {"target": "PSMA2 (peptide sequence: HIGLVYSGMGPDYR, peptide start residue: 71) (UniProt P25787)", "log2 fold change": -0.405},
      {"target": "YWHAQ (peptide sequence: YLAEVACGDDR, peptide start residue: 128) (UniProt P27348)", "log2 fold change": 0.0724},
      {"target": "ITPKA (peptide sequence: TMVNLPVISPFKK, peptide start residue: 172) (UniProt P23677)", "log2 fold change": 0.632},
      {"target": "DNAJB2 (peptide sequence: SVSTSTTFVQGR, peptide start residue: 166) (UniProt P25686)", "log2 fold change": 0.205},
      {"target": "ATP6V1C1 (peptide sequence: DFQYNEEEMKADKEEMNR, peptide start residue: 250) (UniProt P21283)", "log2 fold change": 0.13},
      {"target": "TRIM21 (peptide sequence: GGGSVCPVCR, peptide start residue: 46) (UniProt P19474)", "log2 fold change": 0.252},
      {"target": "UniProt P17097 (peptide sequence: ASDSPSLVAHQR, peptide start residue: 394)", "log2 fold change": 0.0623},
      {"target": "NF1 (peptide sequence: FDEQLPIK, peptide start residue: 17) (UniProt P21359)", "log2 fold change": 0.146}
    ]}
  ]
}
